Assay results from publication PMC11430333.
These are yes or no findings as the source states them, for the method shown. Binding seen in cells or lysates may run through a third protein. For some of these results: Binding can be weak; no strength is given. Tags and fused reporters may be left off the sequences shown.

Experiments:
Assay in all cases: co-IP; HEK-293T cells co-transfected for 24 h with Flag-RSAD2 and GFP-tagged viral proteins or 2C segments, NP40 lysis buffer, five washes; the precipitating antibody is not named for these panels (Figures 3B, 4B, 4C)
[1] = target: GFP-2C (aa 101-322) (Senecavirus A)
[2] = target: GFP-2C (aa 201-322) (Senecavirus A)
[3] = target: GFP-3D (Senecavirus A 3D protein) (Senecavirus A)
[4] = target: GFP-L (Senecavirus A L protein) (Senecavirus A)

B1: Flag-RSAD2 (porcine radical S-adenosyl methionine domain-containing 2) (protein, UniProt Q9MZU4 1-362)
chain: MWTLVPVTFALRLLSTFVQPLGSLGSSLGPLFLWLWAAFWRAGGDRSRQQLQGKTEAGEPPRAQEDSHLPTTPTSVNYHFTRQCNYKCGFCFHTAKTSFVLPLEEAKRGLWLLKEAGMEKINFSGGEPFIHDRGEYLGKLVRFCKEELQLPSVSIVSNGSLIWERWFKSYGEYLDILAISCDSFDEQVNVLIGRGQGKKNHVENLQKLRTWCRDYKVAFKINSVINRFNVEEDMTEHIKALNPVRWKVFQCLLIEGENVGEDALREAEQFVISDEEFEEFLDRHKDVSCLVPESNRQMRDSYLILDEYMRFLNCRNGRKDPSKSILDVGVEKAIKFSGFDEKMFLKRGGKYVWSKADLKLDW
binding [1]: binds | binding [2]: binds | binding [3]: no binding | binding [4]: binds weakly
